# Laboratory results: the supplement of paper PMC3334620
# In all, about 33,000 sequences were measured (“E-score (-0.5 to 0.5)”: median about -8e-05, highest 2% from about 0.23 on). The list shows a part of the results.
# Target: T1, Nrg2 (UniProt P38082)
# T1 sequence: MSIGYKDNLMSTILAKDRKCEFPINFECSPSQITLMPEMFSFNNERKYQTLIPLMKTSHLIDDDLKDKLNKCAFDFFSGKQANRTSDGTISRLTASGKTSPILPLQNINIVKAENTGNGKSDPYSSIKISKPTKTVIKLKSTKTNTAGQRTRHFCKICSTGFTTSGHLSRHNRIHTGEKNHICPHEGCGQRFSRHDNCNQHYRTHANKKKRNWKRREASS
# Test: PBM E-score (8-mer binding enrichment) (E-score (-0.5 to 0.5)); higher = stronger / more preferred TF binding
# Conditions: protein concentration: 100 nM; construct: GST-full length
# In short: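 Yeast transcription factors carrying a GST tag, as full-length proteins or DNA-binding domains, were produced by PURExpress in vitro transcription/translation. About 100-200 nM protein was applied to universal all-10-mer Agilent arrays, double-stranded by primer extension on fresh or once-stripped slides. Bound protein was detected with fluorescent anti-GST, and scans were normalised with masliner. The Universal PBM Analysis Suite gave each ungapped eight-base word, pooled with its reverse complement, an E-score, a modified Wilcoxon-Mann-Whitney statistic.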
row,Sequence,PBM E-score
1,ATAGCATA,0.161
2,GCTACTAA,-0.021
3,ATTAGGGG,0.185
4,AAGCGTGG,0.0382
5,AGAACGCT,-0.13
6,GACCTACA,0.0165
7,AAGAAATT,0.125
8,GACACGGA,0.0872
9,CCAATACG,-0.165
10,CTTACCCA,0.0294
11,TTCCAGAA,0.0408
12,AGGATCAG,-0.0684
13,GAGATACA,0.296
14,CTGCAATA,0.0882
15,ACTTCAGC,-0.206
16,GATAGGAA,-0.00607
17,GGATTACC,-0.0358
18,TGTGACAA,-0.073
19,GTTTCCTA,0.0716
20,ACAGCAAC,-0.00103
21,ATCCTAAG,-0.0575
22,AAAACGGA,0.0164
23,CATTGTAC,-0.0345
24,CGTATCAC,0.0413
25,CATGGTAG,0.00197

row,Sequence,PBM E-score
1,AAAGACGT,0.0439
2,GATACAAA,0.18
3,CAGCGGGG,-0.118
4,GGGGTCGA,0.0645
5,ATTATCGA,-0.00721
6,CATCATAC,0.0351
7,GACTGAGC,-0.208
8,ACGAAGCA,0.0327
9,ATATCGAG,0.0478
10,AATGCTCT,-0.133
11,CCCTCCTA,-0.0642
12,GCAAATAC,0.042
13,AGAGTTAC,-0.161
14,CATTATAA,0.049
15,GCCTAGTA,-0.0125
16,GATGGAAC,0.0203
17,AATGTTTG,-0.018
18,ACAGTTGG,-0.111
19,AAGCATAG,-0.113
20,AACATGCT,-0.0356
21,GTAACGAA,0.0314
22,ACCGATTG,-0.0298
23,TAGACAGA,0.18
24,CGGGGCCC,0.221
25,AATTGTCA,0.15

row,Sequence,PBM E-score
1,CAATATTG,0.137
2,AGATTCAA,0.0745
3,CCCATACG,-0.0789
4,CGTATGCA,0.0707
5,AGAGAGGC,-0.285
6,AAAAGAGT,-0.0952
7,GAAAGCTC,-0.155
8,CAGCCAGA,-0.0868
9,GAGGGTCA,-0.227
10,GTACATGA,-0.0972
11,CAACGAGG,0.146
12,CATAAGCC,-0.132
13,CACCACGC,-0.291
14,TCTAGTCA,-0.0689
15,CTGGCATA,0.0433
16,GCTCTTAC,0.0804
17,CCGCGGTA,0.119
18,CAACGAGA,0.129
19,TGCTCAAA,-0.159
20,GCTCGCCC,-0.0126
21,AAATCTGC,0.0596
22,ATTGACAC,-0.0817
23,ACTGATAC,-0.114
24,CGGAAGGA,-0.171
25,ATGGTTCA,0.0644

# Single entries from the results shown.
# PBM E-score with CAACGAGG is entered as 0.146
# PBM E-score with CTGGCATA is entered as 0.0433
# PBM E-score with TGCTCAAA is entered as -0.159
# PBM E-score with GTACATGA is entered as -0.0972
# PBM E-score with TCTAGTCA is entered as -0.0689

# Remaining list, next part.

row,Sequence,PBM E-score
1,GATAACTA,0.122
2,CTAGCATA,-0.171
3,AAGGAGTC,-0.139
4,CTGAGCGC,-0.031
5,AACCCGTA,-0.0217
6,AAATGGTA,0.22
7,CTTGATCC,-0.0337
8,AAAATGCC,-0.0751
9,CCTTAGAA,-0.0241
10,GTTCACAA,0.0507
11,GCTGAGAC,-0.00984
12,GATGCAAA,0.0177
13,AGGCCTAT,-0.224
14,GCTAATGA,0.00625
15,CGAGCTAA,0.0506
16,AACATCCT,0.0505
17,GCTGGAGA,-0.167
18,GGCGTGAC,-0.0702
19,GATGCCGA,-0.0132
20,GTATAACA,0.0414
21,ACACTTGC,0.0656
22,GCCGGGTA,-0.0201
23,AGACGGCT,-0.278
24,CGTCCGGC,0.0439
25,CCGGTTCA,-0.19

row,Sequence,PBM E-score
1,AAACCGGT,-0.103
2,GAGGTCAA,0.00529
3,GCGGTCCA,-0.159
4,AGCGTAGG,0.0254
5,ATCCAACC,0.0142
6,GAAGAGGC,-0.0753
7,CATCTAGA,-0.00757
8,ACTTTTAG,0.0105
9,TGTTAACA,0.104
10,GATTCGGA,0.138
11,ACGTGTCG,-0.183
12,TCCCTCAA,-0.0165
13,GCTAGGAC,-0.211
14,CCTACCCA,-0.12
15,GGATATAA,0.129
16,CATTGGCC,-0.0708
17,ATGGTCGC,0.0621
18,ATACTCAG,0.227
19,AGAGACCT,-0.0434
20,CCATGATA,-0.00087
21,GTGCACCA,-0.0107
22,ACATAAGC,-0.00031
23,GACTCTCA,-0.0326
24,ACACACAT,0.0979
25,GCCTCGGA,-0.169

row,Sequence,PBM E-score
1,CAGTTGAG,0.0333
2,ACACAGCC,-0.0944
3,CGACACAA,0.0164
4,GCTGCGAA,0.0318
5,AGATCACT,0.218
6,GGTTCTTA,0.139
7,TACGTCTA,-0.033
8,CAGATAGC,-0.124
9,GGCCGGGA,0.00867
10,AAGTACTT,-0.0267
11,AATCACAT,0.0705
12,AGGTCGTC,-0.057
13,AGATCGCG,0.137
14,GCAGAAAC,0.123
15,AAGTTACG,0.0943
16,ACTAAAAG,0.171
17,GACACGCA,-0.0337
18,GCTAGATA,0.0878
19,AAGCTGAG,-0.00374
20,CCAGACTC,-0.138
21,GTATGGTA,0.158
22,TATAGTCA,0.0805
23,CTAAGAGA,-0.0214
24,CCCCTAGG,-0.0754
25,CGAGAACC,-0.00818

row,Sequence,PBM E-score
1,GACAGTAC,0.0442
2,GAGAGCAC,-0.113
3,CTTAGTTC,0.128
4,ACCGTTCT,-0.0558
5,GAATCTAC,0.116
6,GAGTGCAA,0.154
7,AAGACGGC,-0.0277
8,TCAAAGGA,-0.0769
9,ATGTTATG,0.159
10,ACCACAGT,0.0893
11,CGCAATGC,-0.0461
12,CACCACTA,0.0192
13,GTAGATAC,0.0474
14,CAGGACCC,0.215
15,CGCAGTGA,-0.0744
16,ATTGTAAC,0.122
17,ACATGACG,0.00128
18,CCACGAAC,0.12
19,GCAGGTCC,0.00594
20,CCAGGACG,-0.259
21,CAAAATTA,0.103
22,CTGCTTCA,-0.0765
23,CCCCAAGG,-0.109
24,CGTCATAA,-0.0304
25,AAACATGT,0.0882

row,Sequence,PBM E-score
1,CCAACTGA,-0.106
2,GTTGCACA,-0.0572
3,AAATCCAC,0.082
4,AGAGCTTG,0.0228
5,AGCCCGTA,-0.241
6,ACGAAGAA,0.149
7,ATTCACAG,0.0998
8,ATGAGAGG,-0.0391
9,GCCACTCC,-0.111
10,AACGTTTA,0.0881
11,GTACGATA,-0.0465
12,ACGCCGGA,-0.264
13,ACGGAATA,0.052
14,AAACACCC,0.0477
15,CCCGTCGC,0.0288
16,ACTGCTAG,-0.128
17,AGGGGGGG,-0.42
18,AGACTTTG,-0.151
19,CCAAGGAA,-0.188
20,AATTTTGA,0.206
21,GATCAGTA,0.0743
22,AAAGTGTC,0.0487
23,ACTATGGA,-0.182
24,GATAAAAA,-0.00426
25,CCCGTCGA,-0.0776

row,Sequence,PBM E-score
1,AGGCAAGC,-0.0964
2,ATTTTTTC,0.0129
3,ATATACTG,0.099
4,CTGGCTGC,-0.172
5,CGTCCCTA,-0.0138
6,CATGATAC,0.207
7,CGAGATTC,0.143
8,CCTGGTCG,-0.13
9,CCAAGTAG,-0.0138
10,ATTTCCTG,0.173
11,GAGACCCC,0.101
12,GGACAGCA,-0.0537
13,CTTTTGCC,0.1
14,CGAATGAA,0.0718
15,CGGTCCTC,-0.185
16,CAGGTGAC,-0.0938
17,GGTCATGA,0.15
18,CGAAACTA,0.0964
19,CCTCGCGC,-0.0472
